Laboratory results reported in the supplement of paper PMC8728848.
This is one part of the list.

Assays:
Experiment in all cases: glycan array binding signal (z-score within array); higher = stronger binding
Conditions in all cases: glycan notation: IUPAC condensed, linker removed
[1] = biological target: Gal(b1-4)GlcNAc(b1-3)Gal(b1-4)GlcNAc(b1-6)[Gal(b1-3)]GalNAc
Summary of the method: (§1)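 Negative Z-scores can be read as non-binding. The Z-score is calculated within each array and then averaged across arrays of one protein sequence at different concentrations or buffers and across linkers. Arrays, 3228 in all, were curated from the Consortium for Functional Glycomics database and kept only where the protein sequence was available.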

[2] = biological target: Gal(b1-4)GlcNAc(b1-3)Gal(b1-4)[Fuc(a1-3)]GlcNAc(b1-3)Gal(b1-4)[Fuc(a1-3)]GlcNAc
Summary of the method: as §1

[3] = biological target: Gal(b1-4)GlcNAc(b1-3)GalNAc
Summary of the method: as §1

[4] = biological target: Gal(b1-4)GlcNAc(b1-3)[Fuc(a1-3)GlcNAc(b1-6)]Gal(b1-4)Glc
Summary of the method: as §1

[5] = biological target: Gal(b1-4)GlcNAc(b1-3)[Gal(b1-4)GlcNAc(b1-6)]Gal(b1-4)GlcNAc
Summary of the method: as §1

[6] = biological target: Gal(b1-4)GlcNAc(b1-3)[GlcNAc(b1-6)]Gal(b1-4)GlcNAc
Summary of the method: as §1

[7] = biological target: Gal(b1-4)GlcNAc(b1-6)Gal(b1-4)GlcNAc
Summary of the method: as §1

[8] = biological target: Gal(b1-4)GlcNAc(b1-6)GalNAc
Summary of the method: as §1

[9] = biological target: Gal(b1-4)GlcNAc(b1-6)[Gal(b1-3)]GalNAc
Summary of the method: as §1

[10] = biological target: Gal(b1-4)GlcNAc(b1-6)[Gal(b1-4)GlcNAc(b1-3)]GalNAc
Summary of the method: as §1

[11] = biological target: Gal(b1-4)GlcNAc6P
Summary of the method: as §1

[12] = biological target: Gal(b1-6)Gal
Summary of the method: as §1

[13] = biological target: Gal3S(b1-3)GalNAc
Summary of the method: as §1

[14] = biological target: Gal3S(b1-3)GlcNAc
Summary of the method: as §1

[15] = biological target: Gal3S(b1-3)[Fuc(a1-4)]GlcNAc
Summary of the method: as §1

[16] = biological target: Gal3S(b1-4)Glc
Summary of the method: as §1

[17] = biological target: Gal3S(b1-4)Glc6S
Summary of the method: as §1

[18] = biological target: Gal3S(b1-4)GlcNAc
Summary of the method: as §1

[19] = biological target: Gal3S(b1-4)[Fuc(a1-3)]Glc6S
Summary of the method: as §1

[20] = biological target: Gal3S(b1-4)[Fuc(a1-3)]GlcNAc
Summary of the method: as §1

[21] = biological target: Gal3S(b1-4)[Fuc(a1-3)]GlcNAc6S
Summary of the method: as §1

[22] = biological target: Gal3S4S(b1-4)GlcNAc
Summary of the method: as §1

[23] = biological target: Gal3S6S(b1-4)GlcNAc
Summary of the method: as §1

[24] = biological target: Gal3S6S(b1-4)GlcNAc6S
Summary of the method: as §1

[25] = biological target: Gal4S(b1-4)GlcNAc
Summary of the method: as §1

[26] = biological target: Gal4S6S(b1-4)GlcNAc
Summary of the method: as §1

[27] = biological target: Gal6P(b1-4)GlcNAc
Summary of the method: as §1

[28] = biological target: Gal6S(b1-3)GlcNAc
Summary of the method: as §1

[29] = biological target: Gal6S(b1-3)GlcNAc6S
Summary of the method: as §1

[30] = biological target: Gal6S(b1-4)Glc
Summary of the method: as §1

[31] = biological target: Gal6S(b1-4)Glc6S
Summary of the method: as §1

[32] = biological target: Gal6S(b1-4)GlcNAc
Summary of the method: as §1

[33] = biological target: Gal6S(b1-4)GlcNAc6S
Summary of the method: as §1

[34] = biological target: GalNAc(a1-3)Gal
Summary of the method: as §1

[35] = biological target: GalNAc(a1-3)GalNAc
Summary of the method: as §1

[36] = biological target: GalNAc(a1-3)GalNAc(b1-3)Gal(a1-4)Gal(b1-4)Glc
Summary of the method: as §1

[37] = biological target: GalNAc(a1-3)GalNAc(b1-3)Gal(a1-4)Gal(b1-4)GlcNAc
Summary of the method: as §1

B1: Aap lectin (Staphylococcus epidermidis) (protein)
chain: VNLNYSSPFMSLLSMPADSSSNNTKNTIDIPPTTVKGRDNYDFYGRVDIESNPTDLNATNLTRYNYGQPPGTTTAGAVQFKNQVSFDKDFDFNIRVANNRQSNTTGADGWGFMFSKKDGDDFLKNGGILREKGTPSAAGFRIDTGYYNNDPLDKIQKQAGQGYRGYGTFVKNDSQGNTSKVGSGTPSTDFLNYADNTTNDLDGKFHGQKLNNVNLKYNASNQTFTATYAGKTWTATLSELGLSPTDSYNFLVTSS
[1]
  glycan array binding signal (z-score): 1.66
[2]
  glycan array binding signal (z-score): -0.102
[3]
  glycan array binding signal (z-score): -0.298
[4]
  glycan array binding signal (z-score): -0.493
[5]
  glycan array binding signal (z-score): -0.901
[6]
  glycan array binding signal (z-score): -0.878
[7]
  glycan array binding signal (z-score): 2.52
[8]
  glycan array binding signal (z-score): -0.705
[9]
  glycan array binding signal (z-score): -0.175
[10]
  glycan array binding signal (z-score): 0.093
[11]
  glycan array binding signal (z-score): -0.134
[12]
  glycan array binding signal (z-score): -0.798
[13]
  glycan array binding signal (z-score): -0.88
[14]
  glycan array binding signal (z-score): -0.699
[15]
  glycan array binding signal (z-score): -0.61
[16]
  glycan array binding signal (z-score): -0.828
[17]
  glycan array binding signal (z-score): -0.505
[18]
  glycan array binding signal (z-score): -0.43
[19]
  glycan array binding signal (z-score): 1.41
[20]
  glycan array binding signal (z-score): -0.893
[21]
  glycan array binding signal (z-score): -0.886
[22]
  glycan array binding signal (z-score): -0.845
[23]
  glycan array binding signal (z-score): -0.847
[24]
  glycan array binding signal (z-score): -0.024
[25]
  glycan array binding signal (z-score): -0.121
[26]
  glycan array binding signal (z-score): -0.857
[27]
  glycan array binding signal (z-score): -0.787
[28]
  glycan array binding signal (z-score): -0.197
[29]
  glycan array binding signal (z-score): -0.9
[30]
  glycan array binding signal (z-score): -0.164
[31]
  glycan array binding signal (z-score): -0.888
[32]
  glycan array binding signal (z-score): -0.368
[33]
  glycan array binding signal (z-score): 1.54
[34]
  glycan array binding signal (z-score): -0.884
[35]
  glycan array binding signal (z-score): -0.775
[36]
  glycan array binding signal (z-score): -0.571
[37]
  glycan array binding signal (z-score): 0.611
